For 58 molecules, cell number change and AC50 results are on record in PubChem BioAssay AID2685 (National Center for Advancing Translational Sciences (NCATS), 2010).

This is one part of the list. Further columns of the screen follow, without active or inactive calls. Compounds called inactive in the main read-out are mostly missing here. Potencies come from curve fits of mixed quality, noted in brackets.

The test can be described thus: qHTS Assay for Lipid Storage Modulators in Drosophila S3 Cells.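 For cell number change: cells counted by Cell Tracker Red CMTPX staining in the red channel.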 The settings on record: BODIPY lipid droplet fluorescence, 18-24 h; for cell number change: measured here: cell count max response, cells fed with added oleic acid. A digest of the protocol:
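Laser-scanning cytometry quantifies lipid droplet accumulation (500–530 nm total intensity; droplet/cell object ratio) in oleic acid-fed (400 uM added) Drosophila S3 cells treated with a concentration series. 20 uM Triacsin C defined 100% inhibition.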
(In general: Quantitative high-throughput screening tests each substance at several concentrations.)

Where [1] appears, read: measured here: lipid fluorescence (Fed channel) AC50, cells fed with added oleic acid.
Setting [2] is: measured here: cell number channel AC50, cells fed with added oleic acid.

As for `CCc1ccccc1NC(=S)N(Cc1cccnc1)Cc1ccco1`, the cell number change is 11.2%. Also, the half-maximal activity concentration (AC50) under setting [1] was 0.326 µM [rising, partial curve, poor fit].

Turning to `COc1ccc(-c2nnc(SCC(N)=O)n2N)cc1`, the cell number change is -4.42%. The AC50 under setting [1] is 0.651 µM [falling, full curve].

For the molecule `COc1ccc(N2CCN(Cc3cc(OC)c(O)c([N+](=O)[O-])c3)CC2)cc1`, the cell number change was -25.6%. Under setting [2], the AC50 is 1.64 µM [falling, full curve, poor fit]. The AC50 under setting [1] is 1.03 µM [falling, full curve, poor fit].

As to `Cc1[nH]c2ccccc2c1/C=C/c1nc2ccccc2c(=O)[nH]1`, the cell number change was -37.1%. Moreover, the AC50 under setting [2] was 29.1 µM [falling, single point]. For the same molecule, the AC50 under setting [1] is 29.1 µM [falling, single point].

Turning to `Oc1ccccc1-c1nc2cnccn2c1Nc1ccc2c(c1)OCCO2`, the AC50 is 1.84 µM [rising, partial curve] under setting [2] and 2.59 µM [rising, partial curve] under setting [1].

Take `O=C1C2CCCCC2C(=O)N1c1ccc(NC2CCN(Cc3ccccc3)CC2)c([N+](=O)[O-])c1` (stereo not drawn): the AC50 under setting [1] was 18.4 µM [rising, partial curve].

As to `COC(=O)[C@]1(CC(C)C)N[C@H](c2ccc(-c3ccc(F)cc3)cc2)[C@@H]2C(=O)N(C)C(=O)[C@@H]21`, the cell number change was -44.6%. For the same molecule, under setting [2], the AC50 is 18.4 µM [falling, single point].

Regarding `Cc1cc2oc(=O)cc(CN3CCCCC3)c2cc1C`, the cell number change amounted to 24.8%.

Consider `CC(C)=C(C#N)c1nc2ccccc2s1`, for which the cell number change was 108%. In addition, under setting [2], the AC50 was 1.84 µM [rising, full curve]. Under setting [1], the AC50 is 1.03 µM [rising, partial curve].

As to `CC(C)c1ccc2[nH]c(O)c(N=NC(=O)c3cccc(S(=O)(=O)N4CCCCC4)c3)c2c1`, the cell number change came out at 12.7%. Moreover, under setting [1], the AC50 was 6.51 µM [rising, single point].

In the case of `COc1ccc(S(=O)(=O)NCC(c2cccs2)N2CCc3ccccc3C2)cc1` (stereo not drawn), the cell number change is -50.8%. Besides, the AC50 under setting [2] was 23.1 µM [falling, partial curve, poor fit]. The AC50 under setting [1] was 25.9 µM [falling, partial curve, poor fit].

For `O=C(NCCCN1CCOCC1)c1ccc2c(c1)N(Cc1c(F)cccc1Cl)C(=O)c1ccccc1S2`, the cell number change amounted to 8.26%.

Take `O=C(CNc1ccc2ccccc2c1)N/N=C/c1ccccn1`: the cell number change is -11.5%. Besides, under setting [1], the AC50 is 11.6 µM [falling, partial curve, poor fit].

With `CCN(CC)S(=O)(=O)c1cc(C(=O)Oc2cccc(-c3cnc4ccccc4n3)c2)ccc1OC`, the cell number change is 9.95%. The AC50 under setting [2] was 0.103 µM [falling, full curve, poor fit].

With `Clc1cccc(CN2COc3c(cc(Cl)c4cccnc34)C2)c1`, the cell number change is -22.2%. In addition, the AC50 under setting [1] was 2.06 µM [falling, partial curve].

As for `COc1cccc(-c2nc(CS(=O)(=O)CC(=O)NCCCN3CCOCC3)c(C)o2)c1`, the cell number change was -45.2%. Besides, the AC50 under setting [2] is 29.1 µM [falling, single point].

Consider `CCOC(=O)c1cnc(SCC(=O)N2CCc3ccccc32)nc1N`, for which the AC50 is 6.51 µM [rising, single point] under setting [2] and 1.84 µM [rising, partial curve] under setting [1].

Consider `C[C@@H]1CCC(=O)N(CC[C@H](Sc2ccccc2)c2ccccc2)CC1`, for which the cell number change is -1.94%. For the same molecule, the AC50 under setting [1] was 0.092 µM [falling, full curve, poor fit].

Turning to `CCOC(=O)C1CCCN(C(=O)C2CCN(c3nnc(-n4cccc4)s3)CC2)C1` (stereo not drawn), under setting [1], the half-maximal activity concentration (AC50) was 18.4 µM [falling, partial curve].

For the molecule `COc1cccc(C(=O)Nc2cc(NC(=O)c3cccs3)ccc2C)c1OC`, the cell number change was -42.8%. Also, the AC50 under setting [2] was 8.2 µM [falling, partial curve].

`CCCCNC(=S)N1CCn2cccc2C1c1ccc(F)cc1` (stereo not drawn): the cell number change is -30.2%. The AC50 under setting [2] is 3.26 µM [falling, full curve, poor fit]. Also, the AC50 under setting [1] is 0.291 µM [falling, full curve].

As for `O=C(COC(=O)c1cccnc1Cl)c1ccc2c(c1)OCCO2`, under setting [1], the half-maximal activity concentration (AC50) is 3.26 µM [falling, partial curve].

With `Cc1cc(NC(=O)c2cc(-c3ccc(O)cc3)on2)no1`, the cell number change was -6.19%. Moreover, under setting [2], the AC50 is 0.92 µM [falling, full curve, poor fit].

In the case of `Cc1ccc(C)n1-c1ccc(N2CCOCC2)cc1`, the half-maximal activity concentration (AC50) under setting [2] is 6.51 µM [rising, single point].

In the case of `CCOC(=O)N1CCN(S(=O)(=O)c2ccc([N+](=O)[O-])cc2)CC1`, the cell number change is -17.8%. In addition, under setting [1], the AC50 was 25.9 µM [falling, single point].

Turning to `CCOc1ccc(Nc2nc3c(c(=O)[nH]2)CCCC3)cc1`, the cell number change is -11.1%. For the same molecule, under setting [1], the AC50 is 16.4 µM [rising, partial curve, poor fit].

As for `Cc1ccc(NC(=O)NC2=NN(c3ccccc3)C(=O)/C2=C2/CCCN2C)cc1`, the cell number change was -90.3%.

Consider `O=C(CSc1nc2c(sc3ccccc32)c(=O)n1CCCN1CCCC1)NCc1ccco1`, for which the cell number change amounted to 19.3%. The AC50 under setting [2] was 4.11 µM [rising, single point]. Besides, under setting [1], the AC50 was 5.8 µM [rising, single point].

As to `CCOC(=O)C1CCN(S(=O)(=O)c2ccc3[nH]c(=O)oc3c2)CC1`, the cell number change came out at 6.72%.

Take `NS(=O)(=O)c1ccc(CCNC(=O)c2cc([N+](=O)[O-])ccc2N2CCOCC2)cc1`: the cell number change is -0.834%. For the same molecule, under setting [2], the AC50 was 2.06 µM [rising, partial curve]. Also, the AC50 under setting [1] was 6.51 µM [rising, single point].

As to `CC(C)C[C@H](NC(=O)C1CC(=O)N(c2ccc3c(c2)OCCO3)C1)C(=O)NC1CCCC1` (stereo partly drawn), the cell number change is -7.65%.

Turning to `COc1ccc(/C=C/CN2CCC(CO)(Cc3ccccc3Cl)CC2)cc1`, the cell number change is -14.5%. For the same molecule, the AC50 under setting [1] was 18.4 µM [falling, single point].

On to `Cc1nn(Cc2ccc(Cl)cc2)c(C)c1NC(=O)/C=C/c1cnn(C)c1`, for which the cell number change is -1.03%. Moreover, the AC50 under setting [1] was 2.91 µM [rising, partial curve].

With `O=C(CN1CCN(S(=O)(=O)c2ccc3ccccc3c2)CC1)N1CCc2ccccc2C1`, the cell number change was determined as 1.88%. The AC50 under setting [1] is 11.6 µM [rising, partial curve, poor fit].

`Cc1cc(Cl)cc(C)c1OCCCCCn1ccnc1`: the cell number change was -9.62%.

In the case of `COc1ccc(N(C)S(=O)(=O)c2cccc(C(=O)NC3CCCC3)c2)cc1`, the cell number change was 25.5%.

Consider `CC(C)(C)SCCNC(=O)c1ccc(NS(C)(=O)=O)cc1`, for which the cell number change came to 8.56%. In addition, the AC50 under setting [1] was 14.6 µM [rising, partial curve].

Take `Cc1ccccc1NC(=O)N1c2ccccc2CC1C` (stereo not drawn): the cell number change amounted to 145%. Also, under setting [1], the AC50 is 0.82 µM [falling, single point].

Take `Cc1cc(=O)oc2cc(OCC(=O)N/N=C/c3cc([N+](=O)[O-])ccc3O)ccc12`: the cell number change came to 9.08%. In addition, the AC50 under setting [1] was 0.184 µM [rising, full curve, poor fit].

Turning to `COc1ccc(OC)c(NS(=O)(=O)c2ccc(NC(=O)c3ccc(NS(C)(=O)=O)cc3)cc2)c1`, the cell number change turned out to be 58.4%. For the same molecule, the half-maximal activity concentration (AC50) under setting [2] was 0.116 µM [rising, full curve]. The AC50 under setting [1] was 0.326 µM [rising, partial curve, poor fit].

For the molecule `O=C(CN1C(=O)c2ccccc2C1=O)Nc1nnc(C2CCCO2)s1` (stereo not drawn), the cell number change is -16.3%. Under setting [1], the AC50 was 1.46 µM [rising, full curve, poor fit].

As to `O=C(CSc1ccc(-c2cccnc2)nn1)N1CCCCCC1`, the cell number change was found to be 25.9%. Besides, the AC50 under setting [1] is 14.6 µM [rising, partial curve].

In the case of `Cn1c(SCC(=O)NC2CC2)nnc1-c1ccccc1Cl`, the cell number change was -19.5%. In addition, the AC50 under setting [1] is 0.651 µM [falling, partial curve].

On to `CCCOc1ccc(C(=O)Nc2cc(S(=O)(=O)N3CCOCC3)ccc2N2CCOCC2)cc1`, for which the cell number change turned out to be 52.1%. In addition, under setting [2], the AC50 was 23.1 µM [rising, single point]. The half-maximal activity concentration (AC50) under setting [1] is 23.1 µM [rising, single point].

For the molecule `CC1CCN(S(=O)(=O)c2cccc(C(=O)O)c2)CC1`, the concentration at half-maximal activity (AC50) under setting [2] was 6.51 µM [falling, single point] and the half-maximal activity concentration (AC50) under setting [1] was 29.1 µM [falling, single point].

For `COC(=O)c1cc(S(=O)(=O)Nc2cccc(C)c2C)cn1C`, the cell number change was 12.6%. Moreover, the AC50 under setting [1] is 29.1 µM [rising, single point].

Take `CC(=O)Nc1ccc(NS(=O)(=O)c2ccc3c(c2)oc(=O)n3C)cc1`: the cell number change was found to be 13.7%.

For `COc1ccc(N2C(=O)CC(Sc3nccc(C)n3)C2=O)cc1` (stereo not drawn), the cell number change was -1.53%.

As for `COC(=O)c1ccc(NC(=O)CSc2nncn2-c2ccccn2)cc1`, the cell number change was -10.5%. The AC50 under setting [1] was 0.447 µM [rising, full curve, poor fit].

On to `CC(=O)N/C(=C\c1ccccc1)C(=O)OC(C)C(=O)NCc1ccccc1` (stereo not drawn), for which the cell number change stood at 21%.

With `COC(=O)C1=C(C)OC(N)=C(C#N)C1c1ccccc1F` (stereo not drawn), the cell number change was -8.12%.

Regarding `Cc1ccc(-c2csc(N=C(N)N)n2)c(C)c1`, the cell number change is -53.4%. The AC50 under setting [2] is 25.9 µM [falling, partial curve, poor fit]. Further, the AC50 under setting [1] was 8.2 µM [falling, partial curve].

In the case of `CCOC(=O)c1ccc(NC(=O)C2CCC(CNc3c(N4CCOCC4)c(=O)c3=O)CC2)cc1` (stereo not drawn), the cell number change is 13.9%. For the same molecule, the AC50 under setting [1] is 3.26 µM [rising, single point].

On to `Cc1ccc2nc3c(cc2c1)c(C)nn3-c1ccccc1`, for which the cell number change stood at 81%. Also, the AC50 under setting [2] was 29.1 µM [rising, partial curve, poor fit]. Moreover, under setting [1], the AC50 was 29.1 µM [rising, partial curve].

Regarding `COc1ccc(CCNC(=O)COC(=O)c2cc(OC)c(OC)cc2OC)cc1OC`, the cell number change is -1.49%. Under setting [2], the AC50 was 0.651 µM [rising, full curve, poor fit].

Turning to `COc1cc(F)ccc1S(=O)(=O)N1CCN(C23CC4CC(CC(C4)C2)C3)CC1`, the AC50 under setting [1] was 1.46 µM [falling, full curve].

For `C/C(=N\NC(=O)COc1ccc(C(C)(C)C)cc1)c1ccc(OC(F)F)cc1`, the cell number change is -55.6%. Further, the AC50 under setting [2] was 16.4 µM [falling, single point]. For the same molecule, the AC50 under setting [1] is 16.4 µM [falling, partial curve].

For the molecule `CCOC(=O)c1sc(-c2cccc([N+](=O)[O-])c2)cc1N`, the cell number change was determined as 107%. For the same molecule, under setting [2], the AC50 is 29.1 µM [rising, partial curve, poor fit]. Under setting [1], the AC50 was 29.1 µM [rising, partial curve].

One may read the AC50 as the midpoint of the concentration-response curve, whichever way the signal moves. Low readings indicate activity at low concentration, high ones activity only at high concentration.
